In patent US20150020916A1, “Antiperspirant Spray Devices and Compositions” (The Procter & Gamble Company, priority 2013, published 2015):
At least one read-out could not be matched to a standard name with certainty.

Assay: Hansen Solubility Parameter for Hydrogen Bonding
Format: physicochemical

## PPG-14 butyl ether
  Hansen Solubility Parameter for Hydrogen Bonding, δh: about 6.52 MPa^1/2
